Measured values taken from article PMC11757107.
Results are given in words; binding and its absence hold for the method and conditions named. Binding seen in cells or lysates may run through a third protein. Some entries that bind do so weakly or less than the wild type. Blank lines part the entries; values can stand above or below the substance they belong to.

Protein sequences, listed by entry. Tags and fused reporters are not part of them. Residues count along the entry.
UniProt P07355: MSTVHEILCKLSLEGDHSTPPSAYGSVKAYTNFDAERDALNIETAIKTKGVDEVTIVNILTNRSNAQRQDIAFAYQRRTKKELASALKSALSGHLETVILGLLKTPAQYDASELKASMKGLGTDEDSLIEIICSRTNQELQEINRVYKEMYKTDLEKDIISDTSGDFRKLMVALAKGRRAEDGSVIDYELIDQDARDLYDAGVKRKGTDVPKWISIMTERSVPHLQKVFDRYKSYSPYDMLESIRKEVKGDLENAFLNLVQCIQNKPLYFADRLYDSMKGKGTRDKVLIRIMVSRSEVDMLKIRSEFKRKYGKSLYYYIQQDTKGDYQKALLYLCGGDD
UniProt P24593, residues 21-272: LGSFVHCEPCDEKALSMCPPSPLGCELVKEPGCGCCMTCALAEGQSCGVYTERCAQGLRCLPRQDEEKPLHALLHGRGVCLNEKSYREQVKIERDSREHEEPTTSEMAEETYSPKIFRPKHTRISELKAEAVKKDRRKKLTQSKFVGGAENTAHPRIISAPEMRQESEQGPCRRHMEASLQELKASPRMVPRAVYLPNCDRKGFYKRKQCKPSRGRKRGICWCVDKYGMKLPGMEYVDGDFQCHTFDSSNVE
UniProt O00206, residues 24-839: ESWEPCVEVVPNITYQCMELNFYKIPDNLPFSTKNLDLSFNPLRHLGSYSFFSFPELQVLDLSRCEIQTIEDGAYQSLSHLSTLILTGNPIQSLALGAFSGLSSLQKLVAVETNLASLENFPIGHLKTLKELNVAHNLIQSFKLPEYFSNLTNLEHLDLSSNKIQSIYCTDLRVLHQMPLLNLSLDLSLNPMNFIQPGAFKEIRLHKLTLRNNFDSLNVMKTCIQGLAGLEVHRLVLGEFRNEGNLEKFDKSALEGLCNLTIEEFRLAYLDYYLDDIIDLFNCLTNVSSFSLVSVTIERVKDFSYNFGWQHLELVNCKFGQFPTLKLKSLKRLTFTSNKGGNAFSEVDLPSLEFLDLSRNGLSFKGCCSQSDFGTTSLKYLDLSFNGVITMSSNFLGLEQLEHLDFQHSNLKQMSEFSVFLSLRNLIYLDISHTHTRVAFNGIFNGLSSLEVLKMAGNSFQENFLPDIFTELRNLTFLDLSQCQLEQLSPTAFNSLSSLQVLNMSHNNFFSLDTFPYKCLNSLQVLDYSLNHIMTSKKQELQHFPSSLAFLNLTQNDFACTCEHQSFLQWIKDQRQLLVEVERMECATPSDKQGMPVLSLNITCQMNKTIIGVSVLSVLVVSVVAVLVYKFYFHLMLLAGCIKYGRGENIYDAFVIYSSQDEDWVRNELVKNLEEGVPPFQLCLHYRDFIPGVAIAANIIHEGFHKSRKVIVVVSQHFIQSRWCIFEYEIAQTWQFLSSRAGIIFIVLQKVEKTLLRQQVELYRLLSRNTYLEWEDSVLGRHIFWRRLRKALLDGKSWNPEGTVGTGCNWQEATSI

Assays:
[1] = biological target: ANXA2 (human (endogenous in THP-1)) (UniProt P07355); experiment: co-IP; normal THP-1 cell lysate (NP-40 buffer); IP with anti-IGFBP5 or anti-ANXA2 antibody overnight at 4°C, protein A/G magnetic beads, western blot
[2] = biological target: IGFBP5 (human (endogenous in THP-1)) (UniProt P24593); experiment: as above
[3] = biological target: ANXA2 (human (endogenous in THP-1)) (UniProt P07355); experiment: co-IP; ANXA2-IP from THP-1 lysates, TLR4 by western blot; normal or IGFBP5-silenced cells; untreated, LPS (500 ng/ml) or LPS + IGFBP5 (50 ng/ml) for 6 h

binding [1]: binds
Substance: IGFBP5 (from UniProt P24593 21-272)

binding [2]: binds
Substance: ANXA2 (from UniProt P07355 1-339)

binding [3]: binds
Substance: TLR4 (from UniProt O00206 24-839) (receptor)
